The target in one assay is HA-Cyr1 (C. albicans). In words: co-IP; C. albicans cell lysates on HA or Myc antibody beads, 4°C, ≥1 h; five washes in lysis buffer (50 mM Tris-HCl pH 7.4, 150 mM KCl, 1% NP-40); Western blot with αMyc or αHA.
A further assay has as its target Myc-Cyr1 (C. albicans). The description is as above.

These are yes or no findings as the source states them, for the method shown. Binding seen in cells or lysates may run through a third protein. Binding calls can cover weak binding; strength is not graded here. Sequences can lack the tags named with a protein.

These results are taken from paper PMC9769623.

B1: Sln1-Myc (protein, UniProt Q5A872 1-1373)
chain: MRRLKIGIRPQLIIIVCFASLFSLLILGIVTGIYFSANLKNLRLERLLVISQLKRTQVQQAIQYIAYQVMTVSEVDSLTVPLSNYRAGNNSKAVFSEAQNYLQQYVLTTDSFTAARLYDLDLQVVASSFDNMTLISESAQDVVYPLQPNRSMPPVLGTPSGLYFTGPIANNSDNFNSRYFMGITVPVLSNSSIILSQPSISGYLTIVAAAESIRSALNSTSEDDYQAMAVQPVYGDPQKGIDNLSQNAYNGDNEVIGFKLVFPVENSLLEAGTIYNINSSSSMKTALASNSGTATGVKSFFGKKVAIGFSRISVQDNLNWSIVIVQSNSVFNGPANKLRKITIGVVIGIGAFMCFVTFPLAVWFIRPITKLKEATEAITKYKKEKLNSVNSNSPTSGSGSGSGSGSGSRANSDSSADQSLSLDTGKRNSINSSSFSSSYSTGIRLPARIPRSKKIFKDELTELSEAFNIMTEELDKQYTHLEDRVKLRTKELEASKIQAEAANEAKTVFIANISHELRTPLNGILGMTSIAMEEEDPNVIHDSLKLIHRSGELLLHILTELLTYSKNTLNRSKLEKSNFQILEIVYQVRSIFNKLAHDQRVNFKILVKPNIFRKLIIYGDSNRIIQIVMNLVSNSLKFTPVDGSVSVSFKLLGEYDHERSKKLDYKKVCILNDSSSSTVAVPPPTPPSDTKPNPKPKSTPTPKPDPTRSHLVDHNNRSANTTSPLTPVRKPTNQTKNKSITNNVTKQNMKIRKKKKTNKNLHNNNNNNKNDNSDFLMNRRLSGSHKFNNTNDEELSPTAIEKNIDKYLTSSADSDNISVTTLSTVQYETTIFESQFKSKPLPALPVDAKPQVSGKIDENDVNDEDPSGGSIKDDDSEDTINEKQGISSSPSSSSSSNEKQENSPRSNDSTTVTVTRPRHNMMPSAQDFKSYPTFDKKPEYDSNMSNNEIVKNNRVYRIRNMYQPKVWVIQIEVTDTGPGIEPALQEKVFEPFVQGDQTLSRSYGGTGLGLSICRQLATMMHGTLTLKSTIGKGSTFTLTLPLPQTGEIMVPPEDMAEFCEDEFNPAAKINRKVAFEDGDIDTESQQQENPSSEEDTQGDRNVQSSTSSSPPNSSSTDSALPASDSSDIGGTNKSKTTSHGNNKNINAKKRIITNSSASSTKGTKRHTNNDGGGGVNGNHSDDNKDLTLTIDKPSLFTRGSTGTANSGTTSSHSDKKILYPTPTTTTTTTTTTDHTTVLDDISHLRVLVAEDNSVNQEVISRMLKQEGITNLTMACNGAKAIDFVKESIENNENFDLIFMDVQMPEVDGLKATKMIRKNLQYNKPIIALTAFADESNVKECLNSGMSGFITKPISKTNIKKVLVEFLSNEVVTS
Consider B1, for which the binding entry with HA-Cyr1 (C. albicans) is on record as “binds”.

B2: Mp65-HA (protein, UniProt Q59XX2 33-378)
chain: AVHVVTTTNVVVVTIGNGDQTTTFAAPSVAAESSVSVSVNTEPPQNHPTTTQDVASASTYPSSTDGSAASSSAAASSSSQAGSEPSGGVGSGGAKGITYSPYSDNGGCKSESQIASEIAQLSGFDVIRLYGVDCSQVEAVLKAKTSSQKIFAGIFDVSSITSGIESLAEAVKSCGSWDDIYTVSIGNELVNAGSATPSQIKAYVEEGRKALKAAGYTGPVVSVDTFIAVINNPDLCDYSDYMAVNAHAFFDGHVVAENSGAWVLQQIQRVWTACGGKKNVLITETGWPSRGDSNGVAVPSKSNQQAAISSIKSSCGASAILFTAFNDLWKADGPYNAEKYWGIYSN
For the molecule B2, the binding result with Myc-Cyr1 (C. albicans) is “binds”.
